The text below walks through data of paper PMC9541285, “Drug‐dependent inhibition of nucleotide hydrolysis in the heterodimeric ABC multidrug transporter PatAB from Streptococcus pneumoniae” (The Febs Journal, 2022).

Assay [1] concerns the target C-terminally His10-tagged wildtype PatB (Streptococcus pneumoniae R6). Nature of the assay: native MS; affinity-purified PatAB complexes, ~5 µM, buffer exchanged into 200 mM ammonium acetate (pH 8.0) with 2x CMC of detergent G1; nano-electrospray, Q-Exactive UHMR; both purified.
Assay [2] has the same target. Nature of the assay: native MS; both purified.

Results are given in words; binding and its absence hold for the method and conditions named. A result given as binding can be weak or reduced; the word gives no strength.

Take “N-terminally His6-tagged PatA Q521A mutant (from UniProt A0ACD7PTT7)”: the binding entry in assay [1] is listed as “binds”.

Consider “N-terminally His6-tagged wildtype PatA (from UniProt A0ACD7PTT7)”, for which, in assay [2], the binding entry is “binds”.
